## Library screen at single concentrations

Amino acid sequences for entries named in this document (tags omitted). Residues count along the entry.
UniProt A4I591, 1-473: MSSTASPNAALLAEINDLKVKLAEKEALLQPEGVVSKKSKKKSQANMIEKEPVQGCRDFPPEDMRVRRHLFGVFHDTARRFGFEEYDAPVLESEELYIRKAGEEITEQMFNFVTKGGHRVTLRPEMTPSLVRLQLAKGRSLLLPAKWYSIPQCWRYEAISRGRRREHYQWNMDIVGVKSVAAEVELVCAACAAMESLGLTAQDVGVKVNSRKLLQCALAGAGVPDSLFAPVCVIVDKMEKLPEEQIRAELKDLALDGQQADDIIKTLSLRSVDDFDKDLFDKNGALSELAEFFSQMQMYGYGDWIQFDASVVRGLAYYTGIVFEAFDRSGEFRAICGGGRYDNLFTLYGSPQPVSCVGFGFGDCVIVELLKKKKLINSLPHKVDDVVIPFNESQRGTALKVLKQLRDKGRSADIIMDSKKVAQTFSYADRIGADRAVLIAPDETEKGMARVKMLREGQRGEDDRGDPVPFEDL
UniProt I6X8D2, whole entry: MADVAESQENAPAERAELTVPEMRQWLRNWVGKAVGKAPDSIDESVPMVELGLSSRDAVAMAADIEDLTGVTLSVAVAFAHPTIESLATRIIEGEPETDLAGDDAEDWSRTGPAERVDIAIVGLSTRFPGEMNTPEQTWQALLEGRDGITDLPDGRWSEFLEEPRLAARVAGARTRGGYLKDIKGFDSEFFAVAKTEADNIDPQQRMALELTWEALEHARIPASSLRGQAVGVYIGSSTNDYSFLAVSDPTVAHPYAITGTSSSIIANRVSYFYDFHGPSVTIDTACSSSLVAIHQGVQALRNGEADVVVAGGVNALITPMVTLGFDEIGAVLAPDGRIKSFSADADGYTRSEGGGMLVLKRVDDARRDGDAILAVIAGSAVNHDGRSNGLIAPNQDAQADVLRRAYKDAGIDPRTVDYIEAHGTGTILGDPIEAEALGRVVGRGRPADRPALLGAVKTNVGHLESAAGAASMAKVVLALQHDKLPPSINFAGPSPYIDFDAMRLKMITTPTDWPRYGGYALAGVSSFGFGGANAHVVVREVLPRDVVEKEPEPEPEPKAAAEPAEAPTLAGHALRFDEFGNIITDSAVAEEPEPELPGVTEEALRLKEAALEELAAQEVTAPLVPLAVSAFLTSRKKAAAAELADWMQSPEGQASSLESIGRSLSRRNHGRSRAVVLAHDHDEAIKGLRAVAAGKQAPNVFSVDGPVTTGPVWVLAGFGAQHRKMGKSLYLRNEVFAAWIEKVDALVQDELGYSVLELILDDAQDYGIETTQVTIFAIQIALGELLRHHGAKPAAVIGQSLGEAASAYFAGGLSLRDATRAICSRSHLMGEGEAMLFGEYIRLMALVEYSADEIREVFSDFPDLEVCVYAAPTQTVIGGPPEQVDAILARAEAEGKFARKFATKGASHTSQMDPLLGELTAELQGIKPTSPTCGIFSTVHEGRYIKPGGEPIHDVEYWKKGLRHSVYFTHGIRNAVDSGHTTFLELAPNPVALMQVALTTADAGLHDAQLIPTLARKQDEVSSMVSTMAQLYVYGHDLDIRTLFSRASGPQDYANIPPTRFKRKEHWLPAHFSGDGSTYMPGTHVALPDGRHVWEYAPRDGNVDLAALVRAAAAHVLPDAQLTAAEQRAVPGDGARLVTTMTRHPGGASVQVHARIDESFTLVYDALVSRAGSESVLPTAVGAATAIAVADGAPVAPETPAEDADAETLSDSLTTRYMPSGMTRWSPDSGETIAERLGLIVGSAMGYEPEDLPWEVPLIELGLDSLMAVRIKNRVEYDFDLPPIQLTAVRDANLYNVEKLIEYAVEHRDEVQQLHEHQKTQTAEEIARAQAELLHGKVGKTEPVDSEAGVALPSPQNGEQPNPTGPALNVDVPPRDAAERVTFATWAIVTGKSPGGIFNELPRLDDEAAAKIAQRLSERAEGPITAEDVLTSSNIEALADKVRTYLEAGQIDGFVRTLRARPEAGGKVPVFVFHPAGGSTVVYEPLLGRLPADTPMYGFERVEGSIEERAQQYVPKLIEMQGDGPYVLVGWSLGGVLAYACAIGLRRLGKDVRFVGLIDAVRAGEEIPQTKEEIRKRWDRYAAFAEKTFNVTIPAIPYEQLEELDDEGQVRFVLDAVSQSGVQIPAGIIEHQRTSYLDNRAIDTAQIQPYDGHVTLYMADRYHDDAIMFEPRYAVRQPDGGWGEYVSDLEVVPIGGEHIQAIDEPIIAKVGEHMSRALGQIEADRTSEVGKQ

From ChEMBL document CHEMBL3988442, “University of Dundee, Small-Polar-MMV Screening Library” (2021).

The filed quantity is “Percent Effect” (%). The controls that fix the scale are not given in the record; negative values are as filed. The compounds are a random part of those screened. Two or more numbers in one place are separate tests of the same structure; such repeats can differ widely. A dash means the value is not listed here; it may have been measured.

LiHisRS: 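Histidine-tRNA ligase, Leishmania infantum (UniProt A4I591). Enzyme assay of histidyl-tRNA synthetase; the read-out is not stated. Compounds at 30 µM. Direction is inferred from retests: higher values go with stronger inhibition. The assay is labelled LdHisRS but filed under L. infantum. Size under these conditions: about 69,000 compounds, about 410 of them at 50% or above in at least one test.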
Pks13 thioesterase: 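Enzyme assay of the thioesterase domain of polyketide synthase 13; the read-out is not stated. Target: Polyketide synthase Pks13, Mycobacterium tuberculosis (UniProt I6X8D2). Concentration: 30 µM. The record gives no direction; the compounds picked for IC50 retests had high values, so higher reads as stronger inhibition. About 67,000 compounds were tested under these conditions; 0.46% (about 300) showed 50% or more at least once.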
Leishmania in macrophages: 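Cell assay of Leishmania donovani living inside macrophages; the read-out is not stated. Compounds at 30 µM. Direction is inferred from retests: higher values go with stronger inhibition. Size under these conditions: about 69,000 compounds, about 1,000 of them at 50% or above in at least one test.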

| SMILES | LiHisRS | Pks13 thioesterase | Leishmania in macrophages |
|---|---|---|---|
| `Cc1ccc(CN2CCCn3nnc(COCC4CC4)c3C2)s1` | 12.41 | -25.78 | - |
| `O=C(Nc1cccnc1)C1CCCN(c2cc(-n3cccn3)ncn2)C1` (centres undefined) | 10.43 | -6.791 | 16.88 and 10.42 |
| `O=C(NCC1COCc2c(-c3cccnc3)nnn2C1)c1cccs1.O=C(O)C(F)(F)F` (centres undefined) | - | - | 2.424 |
| `CCN1CCC2(CC1)C(=O)N(c1ccc(C)nc1)CCN2CC(C)C` | 18.97 | -40.15 | - |
| `CC(C)S(=O)(=O)N(C)C(=O)CCc1ccsc1` | 4.839 | -15.26 | 37.3 |
| `Cc1ccc(S(=O)(=O)N2CCCCC(N3CCN(C)CC3)C2)cc1F` (centres undefined) | 15.07 | - | 36.79 |
| `COc1cc(N2CC3(CCN(S(C)(=O)=O)C3)C2)ncn1.O=C(O)C(F)(F)F` | - | - | 8.711 and 5.998 |
| `CC(=O)CN1CCC2(CC1)c1ccccc1[C@@H](N1CCSCC1)[C@@H]2O` | 7.692 | -39.54 | -6.182 |
| `CC(=O)N1CCC2(C1)c1ccccc1S(=O)(=O)N2Cc1ccccc1` (centres undefined) | 15.96 | -13.17 | -11.27 |
| `Cc1cnc(C)c(N2CCC(c3nccn3Cc3cscn3)CC2)n1` | 4.167 | 0.7092 | -10.46 |
| `CN(C)CCC1CCN(Cc2ccn(C)c(=O)c2)CC1` | 17.09 | -32.17 | 34.27 |
| `CCc1n[nH]c(C2CN(C(=O)CCc3cccs3)CCO2)n1` (centres undefined) | 18.92 | -18.07 | -9.224 |
| `Cc1cc(C)cc(NC(=O)Cc2c(C)nc3c(c2C)c(=O)[nH]n3C)c1` | 21.49 | -16.41 | 38.41 |
| `Cc1cc(C)n(-c2ccc(C(=O)NCC(CO)Cc3ccco3)cc2)n1` (centres undefined) | 13.99 | -13.36 | -4.143 |
| `O=C(NCCc1cccc(Cl)c1)C1CCOCC1` | 1.299 | 10.53 | -10.81 |
| `c1ccc(CO[C@@H]2C[C@H]3CN(c4ncccn4)CCN3C2)cc1` | 5.172 | 6.042 | - |
| `CCOCC(=O)NC1(c2nc(C)cs2)CCCC1` | -6.306 | -6.495 | -44.15 |
| `Cn1c(CN2CCOCC2)cc(=O)c(O)c1CN1CCCCC1` | 19.57 | 5.167 | 16.99 |
| `COc1cc(N2C[C@H](C(=O)N3CCCC3)[C@@H]3CCO[C@@H]3C2)ncn1` | 8.065 | -4.11 | - |
| `Cc1ccc(C(=O)N2CC[C@H]3[C@H]2CCN3CC2CCOCC2)cc1F` | 3 | -7.974 | - |
| `O=C1CC2(CCN(Cc3cccnc3)C2)CN1c1cncnc1` (centres undefined) | 9 | 1.038 | - |
| `Cc1cc(NC2CCN(c3ccccc3)C2)n2ncnc2n1` (centres undefined) | 38.36 | -14.5 | -55.47 |
| `O=C(NCc1cnn2cccnc12)C1CC2(CCNCC2)CN1` (centres undefined) | 9.836 | -21.35 | 21.38 |
| `[H][C@]12CCN(C(=O)Cc3ccc(OC)cc3)CC[C@@]1([H])S(=O)(=O)N(C)C2` | - | - | 33.81 |
| `Cn1cnc(S(=O)(=O)NCCN2CCCCCC2)c1Cl` | 16.07 | -25.2 | 9.528 |
| `CC(C)CC(NCc1cscn1)c1ccccn1` (centres undefined) | -4.762 | 0.4985 | -9.195 |
| `O=C(C1CCN(c2cccnn2)C1)N1CCOCC1` (centres undefined) | -11.58 | -8.197 | 3.966 and 5.665 |
| `CC(=O)N1CCC2(CCCN(S(=O)(=O)c3ccc(F)cc3)C2)C1` (centres undefined) | 15.38 | -29.47 | 12.12 |
| `O=C(O)C(F)(F)F.[H][C@@]12CCCO[C@]1([H])[C@H](N(C)C)CN2C(=O)Cc1cccs1` | - | - | -12.28 |
| `CNc1nc(C2CCCN(C(=O)C(C)(C)OC)C2)nc2c1CN(C)CC2` (centres undefined) | 10.34 | -5.655 | 19.75 |
| `CCn1ncnc1CN1CCC(CNC(=O)c2cccc(C)n2)C1` (centres undefined) | 15.73 | -5.497 | 16.11 |
| `CC(C)CCn1cc(C(C(=O)O)N2CCSCC2)cn1` (centres undefined) | 0 | -12.74 | 13.32 |
| `Cc1csc(-c2cccc(NC(=O)NCC(C)(C)C(N)=O)c2)n1` | 0 | 9.647 | 4.391 |
| `CC(=O)N(C/C=C/c1ccccc1)CCO` | 5.833 | -18 | -19.22 |
| `Cc1ccc(N2CCN(C)c3ncccc3C2)nn1` | 20.69 | - | - |
| `O=S1(=O)CCC(n2cc(C3=CCN(CCc4ccccc4)CC3)cn2)C1` (centres undefined) | 15 | -21.93 | 27.24 |
| `Cc1nc(NCc2cccc(F)c2)cc(C2CCNCC2)n1.Cl` | - | - | 31.16 |
| `CC(=O)N1N=C(c2ccccc2)OC1C(=O)NCCN(C(C)C)C(C)C` (centres undefined) | 21.78 | -19.79 | 20.99 |
| `Cc1ccccc1C1(C(=O)NCCN(C(C)C)C(C)C)CCOCC1` | 12.04 | -19.23 | 1.942 |
| `COCC1c2c(cnn2C)CCN1Cc1cccc(C)c1` (centres undefined) | 7.692 | 0.6374 | - |
| `Cc1cc(C(=O)N2CCCC(O)(CN3CCCC3)C2)ccc1Cl` (centres undefined) | 16.67 | -4.891 | -4.864 |
| `Cl.O=C(NCC1CCC2(CCNCC2)CO1)c1cnccn1` (centres undefined) | - | - | 1.16 and -19.39 |
| `CCCc1nc(CN2CCN(Cc3noc(CCC)n3)CC2)no1` | 18.92 | -1.653 | -10.29 |
| `CCn1cc2c(n1)CN(C(=O)c1ccncc1)CC2COCC1CC1.O=C(O)C(F)(F)F` (centres undefined) | - | - | 5.836 |
| `Cl.O=C(NC1CCCC1)C1(Cc2cc(C3CCOC3)no2)CCNCC1` (centres undefined) | - | - | 11.3 |
| `O=C(NCCCNCC1CNc2ccnn2C1)c1ccccc1` (centres undefined) | 17.31 | -14.76 | 13.74 |

Repeated from the top, 4 entries:

For Cc1ccc(CN2CCCn3nnc(COCC4CC4)c3C2)s1 the result was LiHisRS: 12.41%; Pks13 thioesterase: -25.78%.
For O=C(Nc1cccnc1)C1CCCN(c2cc(-n3cccn3)ncn2)C1 (centres undefined) the result was LiHisRS: 10.43%; Pks13 thioesterase: -6.791%; Leishmania in macrophages: 16.88% and 10.42%.
For O=C(NCC1COCc2c(-c3cccnc3)nnn2C1)c1cccs1.O=C(O)C(F)(F)F (centres undefined) the result was Leishmania in macrophages: 2.424%.
For CCN1CCC2(CC1)C(=O)N(c1ccc(C)nc1)CCN2CC(C)C the result was LiHisRS: 18.97%; Pks13 thioesterase: -40.15%.